# From the supplement of paper PMC10338343
# ± gives the standard deviation. The list shows a part of the results. Many of these values have a large error.
# System: EfPiwi piRISC loaded with L1MC piRNA (26 nt)
# Assay: pre-steady-state target cleavage rate (min^-1); guide: L1MC piRNA 5'p-UAACUAAAUACUAUGCAAGCUGUAGG; MIWI and MILI are mouse PIWI proteins and EfPiwi is from a freshwater sponge; tags in brackets are library labels; higher = faster piRNA-guided slicing of the target
# Conditions: auxiliary factor: 500 nM Ephydatia muelleri Gtsf1
# Method in brief: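 Active affinity-purified piRISC (1 nM) loaded with one synthetic guide was mixed with a transcribed, DNA-blocked target RNA library (0.1 nM), with or without 500 nM GTSF1 partner protein, in HEPES–potassium acetate buffer at 33 °C for 0–8 or 0–960 min. Uncleaved targets were sequenced, normalised to depth and to weakly complementary targets, and pooled across three trials, with k3 capped at 0.0001 min^-1. The pre-steady-state cleavage rate was determined with a burst-and-steady-state fit.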
row,Sequence,pre-steady-state target cleavage rate
1,UCCUGGUACAGGUUGCAUAGUAUUUUGUUA,0.00117 ± 0.0067
2,UCCUCCUACAGCUUGCACAGUAUUUAGUUA,0.0475 ± 0.013
3,UCCUGGAUGAGCUUGAAUAGUAUUUAGUUA,0.00419 ± 0.0027
4,UCCUGGAUGUGCUUGCACAGUAUUUAGUUA,0.00686 ± 0.0028
5,UCCUGGUACAGCAUGCUUAGUAUUUAGUUA,0.00778 ± 0.0028
6,UCCUCCUACAGGUUGCAUAGUAUUUAGUAA,0.00547 ± 0.0022
7,UCCUGGAUCAGCAUGCAUAGUAAUUAGUUA,0.00437 ± 0.0016
8,UCCUGCUACAGCUUGAAUAGUAUUUAGUUA,0.0179 ± 0.0045
9,UCCUGGAUCAGCUUGCUUAGUAAUUAGUUA,0.0988 ± 0.033
10,UCCUGGAUGUGCUUGCUUAGUAUUUAGUUA,0.00274 ± 0.0029
11,UCCUGGAUGUCGAACGAUACUAUAUAGUUA,0.000176 ± 0.028
12,UCCUCCUACUCCUUGCAUAGUAUUUAGAAA,0.00457 ± 0.0022
13,UCCUGGUACUGCUUGCAUACUAUUUAGUUA,0.00259 ± 0.0026
14,UCCUGGAAGAGCUUGCAUAGUAUUUAGUAA,0.00426 ± 0.0021
15,UCCUCCUACAGCUUGCAUAGUAUUUAGAUA,0.00505 ± 0.0025
16,UCCUGGAUCAGCUUGGAAAGUAUUUAGUUA,0.00365 ± 0.0033
17,UCCUGGAUCAGCUUGCAUAGUUUUAAGUUA,0.00285 ± 0.0028

row,Sequence,pre-steady-state target cleavage rate
1,UCCUGGAACAGCUCUGCAUAGUAUUUAGUUA,0.0165 ± 0.005
2,UCCUGGAACACCUUGCAUUGUAUUUAGUUA,0.00411 ± 0.0026
3,UCCUGGUACAGCUUGCAUAGUAUUUAGUAA,0.0108 ± 0.0041
4,UCCUGGAUCAGCUUGCAUUGUAUUAAGUUA,0.00314 ± 0.0017
5,UCCUGGUACAUCUUGCAUAGUAUUUAGUUA,0.0254 ± 0.01
6,UCCUCCUACACCUUGCAUAGUAUAUAGUUA,0.00711 ± 0.0039
7,UCCUGGAUGUCGAACGUAAGUAUUUAGUUUA,0.000134 ± 0.02
8,UCCUCCUACUGCUUGCAUAGUAUUUUGUUA,0.0111 ± 0.0044
9,UCCUCCUACAGGUUGCAUAGUAUAUAGUUA,0.0129 ± 0.0046
10,UCCUCCUACAGCUAUGCAUAGUAUUUAGUUA,0.0164 ± 0.0055
11,UCCUGGAUGUCGAACGUAUCUAGUUUAGUUA,< 0.0001
12,UCCUGGAUGUCGAAGCAUAGUAAUUAGUAA,0.000725 ± 0.008
13,UCCUGGAUGUGCUUGCAGAGUAUUUAGUUA,0.00217 ± 0.0036
14,UCCUGGAACAGCUUGGAUUGUAUUUAGUUA,0.00093 ± 0.006
15,UCCUGGAACAGCUUGCUAAGUAUUUAGUUA,0.00374 ± 0.0032
16,UCCUCCUACACGCUUGCAUAGUAUUUAGUUA,0.00856 ± 0.003
17,UCCUGGAUGUCCUGCAUAGUAUUUAGUUA,0.00358 ± 0.0026

# For convenience, part of the list above:
row,Sequence,pre-steady-state target cleavage rate
6,UCCUCCUACAGGUUGCAUAGUAUUUAGUAA,0.00547 ± 0.0022
7,UCCUGGAUCAGCAUGCAUAGUAAUUAGUUA,0.00437 ± 0.0016
8,UCCUGCUACAGCUUGAAUAGUAUUUAGUUA,0.0179 ± 0.0045

# Same assay, conditions: auxiliary factor: none (no Gtsf1)
row,Sequence,pre-steady-state target cleavage rate
1,UCCUGGAUGUCGAACGUUAGUAUUUAGUAA,0.000297 ± 0.018
2,UCCUGGAUGAGCUUGCAAAGUAUUUAGUUA,0.00139 ± 0.0062
3,UCCUGGAUGUGCUUGCAUAGUAGUUAGUUA,0.00235 ± 0.0072
4,UCCUGGAUGUCGAACGUAUCUAAUUUAGUUA,0.000177 ± 0.027
5,UCCUGGAUCAGCUUGCAUAGUAUUUACAAA,0.000904 ± 0.0091
6,UCCUGGAUGGGCUUGCAUAGUAUUUAGUUA,0.000437 ± 0.029
